Source: PubChem BioAssay AID504764 (Drosophila RNAi Screening Center, 2011)
Aim: 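Knock-downs that raise or lower a Notch target reporter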 (primary screen). Cell system: Drosophila Kc167 cells. Reagents: long dsRNA against Drosophila genes. Time to read-out: about 5 days (4 days dsRNA, then 24 h after transfection). Challenge: transfection of constitutively active membrane-tethered Notch lacking the extracellular domain, read 24 h later. Read-out: 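Light from a Notch-responsive E(spl)m3 luciferase reporter under active Notch, with control-promoter and no-Notch reporter wells to normalise; raw counts from paired wells a and b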. Reading the numbers: induced reporter light, run 1, well a and induced reporter light, run 1, well b: higher = more light from the Notch target reporter with active Notch; control promoter light, run 1, well a and control promoter light, run 1, well b: higher = more light from the viral control promoter (cell number, transfection, viability); uninduced reporter light, run 1, well a: higher = more light from the Notch target reporter without active Notch. Active means: 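Hit if the duplicate-averaged log2 ratio of induced to control-promoter light gives a plate-wise z beyond ±2, or induced to uninduced beyond ±1.8; weak-control or discordant-duplicate wells dropped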. Calls: active = modifier hit (raised or lowered Notch signal); inactive = not a hit.
The screen tested about 22,000 reagents; below is a random part of those with a known target gene and a result. Over the whole deposit, 403 (1.9%) are marked active. 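Unnormalised raw counts per well; ratio z-scores behind the hit calls and whether each hit raises or lowers signal are not deposited.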 Reagents against one gene are numbered here. Not stated in the record: the amount of reagent.

| gene | reagent | induced reporter light, run 1, well a | induced reporter light, run 1, well b | control promoter light, run 1, well a | control promoter light, run 1, well b | uninduced reporter light, run 1, well a | Outcome |
| --- | --- | --- | --- | --- | --- | --- | --- |
| CG4741 | 1 | 21120 | 19762 | 20705 | 24255 | 1720 | inactive |
| Or59b (Odorant receptor 59b) | 1 | 2.05e5 | 2.04e5 | 1.70e5 | 1.79e5 | 15285 | inactive |
| Polr2F (RNA polymerase II, I and III subunit F) | 1 | 37235 | 38370 | 33670 | 24295 | 4520 | inactive |
| CG30345 | 1 | 69970 | 81540 | 89820 | 1.25e5 | 4380 | inactive |
| scb (scab) | 1 | 1.71e5 | 1.80e5 | 3.14e5 | 3.11e5 | 17745 | inactive |
| scb (scab) | 2 | 1.01e5 | 93560 | 1.46e5 | 1.17e5 | 9615 | inactive |
| l(2)k10201 (lethal (2) k10201) | 1 | 1.95e5 | 2.04e5 | 2.36e5 | 2.38e5 | 18285 | inactive |
| l(2)k10201 (lethal (2) k10201) | 2 | 1.97e5 | 2.00e5 | 2.43e5 | 2.44e5 | 19730 | inactive |
| Edg91 (Ecdysone-dependent gene 91) | 1 | 1.91e5 | 2.52e5 | 2.23e5 | 2.26e5 | 16825 | inactive |
| CG11693 | 1 | 95715 | 1.06e5 | 85225 | 82655 | 7445 | inactive |
| Loxl1 (Lysyl oxidase-like 1) | 1 | 1.42e5 | 1.46e5 | 2.33e5 | 2.82e5 | 10938 | inactive |
| Nuak (Nuak family kinase) | 1 | 87470 | 70975 | 62630 | 50015 | 5390 | inactive |
| Nuak (Nuak family kinase) | 2 | 81825 | 1.15e5 | 48895 | 47940 | 7830 | inactive |
| Nuak (Nuak family kinase) | 3 | 73810 | 96950 | 81145 | 77825 | 5355 | inactive |
| CG13594 | 1 | 1.12e5 | 1.06e5 | 87790 | 79880 | 9600 | inactive |
| CG33339 | 1 | – | – | – | – | – | inactive |
| CG30403 | 1 | 1.53e5 | 1.16e5 | 2.97e5 | 2.92e5 | 11250 | inactive |
| List (Lithium-inducible SLC6 transporter) | 1 | 45900 | 37890 | 34015 | 46490 | 4338 | inactive |
| lectin-33A | 1 | 1.04e5 | 1.28e5 | 64460 | 68260 | 13650 | inactive |
| lectin-33A | 2 | – | – | – | – | – | inactive |
| Dtd (D-aminoacyl-tRNA deacylase) | 1 | 94235 | 1.01e5 | 93740 | 83580 | 5888 | inactive |
| retn (retained) | 1 | 1.79e5 | 1.50e5 | 1.45e5 | 1.49e5 | 9792 | inactive |
| CG4611 | 1 | 2.41e5 | 2.72e5 | 3.07e5 | 2.55e5 | 14340 | inactive |
| betaTub97EF (beta-Tubulin at 97EF) | 1 | 70405 | 83490 | 1.58e5 | 1.30e5 | 9305 | inactive |
| betaTub97EF (beta-Tubulin at 97EF) | 2 | 1.77e5 | 1.48e5 | 2.26e5 | 1.88e5 | 15110 | inactive |
| betaTub97EF (beta-Tubulin at 97EF) | 3 | 1.12e5 | 1.09e5 | 1.52e5 | 1.70e5 | 10445 | inactive |
| Atg12 (Autophagy-related 12) | 1 | 1.58e5 | 1.96e5 | 2.60e5 | 1.80e5 | 9490 | inactive |
| sano (serrano) | 1 | 97535 | 95175 | 1.66e5 | 2.18e5 | 8720 | inactive |
| bru2 (bruno 2) | 1 | 1.22e5 | 1.27e5 | 1.16e5 | 1.21e5 | 9010 | inactive |
| bru2 (bruno 2) | 2 | 31575 | 30355 | 8130 | 7800 | 9605 | inactive |
| bru2 (bruno 2) | 3 | 1.26e5 | 1.10e5 | 1.45e5 | 1.43e5 | 8305 | inactive |
| bru2 (bruno 2) | 4 | 77890 | 71270 | 86875 | 85015 | 7888 | inactive |
| bru2 (bruno 2) | 5 | 11580 | 12365 | 15200 | 11865 | 2745 | inactive |
| SmydA-6 (SET and MYND domain containing, arthropod-specific, member 6) | 1 | 82205 | 69645 | 78775 | 99455 | 6825 | inactive |

Just “uninduced reporter light, run 1, well a” (5 entries from above):
retn (retained)	9792
CG4611	14340
betaTub97EF (beta-Tubulin at 97EF) #1	9305
betaTub97EF (beta-Tubulin at 97EF) #2	15110
betaTub97EF (beta-Tubulin at 97EF) #3	10445
